For at least one compound, name, drawing or mass did not settle the structure.
Target: T1, rat sodium dependent dicarboxylate cotransporter (rNaDC-1) (Rattus norvegicus, UniProt P70545)
T1 construct: expressed in transfected cells; host or cells: Xenopus laevis oocytes injected with in vitro transcribed cRNA
T1 sequence (P70545 1-587): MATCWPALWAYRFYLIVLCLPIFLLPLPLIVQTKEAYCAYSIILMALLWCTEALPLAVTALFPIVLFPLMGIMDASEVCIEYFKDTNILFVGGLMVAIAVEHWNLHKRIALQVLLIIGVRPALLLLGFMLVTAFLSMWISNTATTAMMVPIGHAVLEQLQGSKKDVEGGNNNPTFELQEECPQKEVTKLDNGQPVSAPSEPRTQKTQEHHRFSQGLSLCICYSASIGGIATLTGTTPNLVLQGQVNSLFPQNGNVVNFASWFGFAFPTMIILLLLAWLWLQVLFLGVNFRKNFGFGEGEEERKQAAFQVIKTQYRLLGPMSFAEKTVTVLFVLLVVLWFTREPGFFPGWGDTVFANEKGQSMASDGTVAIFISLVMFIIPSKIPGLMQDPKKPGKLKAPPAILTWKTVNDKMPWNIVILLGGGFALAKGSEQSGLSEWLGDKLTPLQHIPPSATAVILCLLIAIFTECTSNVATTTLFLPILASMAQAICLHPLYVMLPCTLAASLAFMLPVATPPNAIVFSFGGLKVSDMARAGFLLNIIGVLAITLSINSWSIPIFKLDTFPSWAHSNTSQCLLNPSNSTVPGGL
Test: 14C-glutarate uptake in oocytes injected with rNaDC-1 cRNA
Type: cell-based
Details: ND96 solution

## O=C(O)CCCC(=O)O [glutarate]
  uptake of glutarate by oocytes injected with rNaDC-1 cRNA: sodium-dependent uptake
